Experimental findings from patent US9371393B2 (Immunomedics, Inc., priority 2009, dated 2016) are described below.

A short description of the series: general procedure: Fmoc solid-phase peptide synthesis; NovaSyn TGR resin. The note with it: whole synthesis, scale 0.112 mmol.

“Ac-C-PEG3-C(S-tBu)GQIEYLAKQIVDNAIQQAGC(S-tBu)G-NH2” gave an isolated mass of 32.7 mg.
